Results on 34 compounds are retold here after PubChem BioAssay AID2685 (National Center for Advancing Translational Sciences (NCATS), 2010).

A short description of the assay: qHTS Assay for Lipid Storage Modulators in Drosophila S3 Cells.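 As to cell number change: cells counted by Cell Tracker Red CMTPX staining in the red channel.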 The settings on record: BODIPY lipid droplet fluorescence, 18-24 h; for cell number change: measured here: cell count max response, cells fed with added oleic acid. The gist of the method:
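Drosophila S3 cells loaded with oleic acid (400 uM, as added) and compounds at several concentrations; lipid droplets imaged by 488-nm laser-scanning cytometry, 500–530 nm intensity and object ratio to cell channel. Percent activity normalized to 20 uM Triacsin C.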
For orientation: qHTS replaces the single test concentration by a dilution series.

Where [1] appears, read: measured here: lipid fluorescence (Fed channel) AC50, cells fed with added oleic acid.
[2] abbreviates: measured here: cell number channel AC50, cells fed with added oleic acid.

Usually AC50 stands for the concentration giving half of the maximal activity seen. Lower therefore signals activity at low concentration.

Each structure is given as a SMILES string. This is one part of the list. These are further read-outs of the screen, such as a control signal, another cell line or another target. No call is given for them. The list favours compounds with an active or inconclusive main result. Words in brackets tell the shape of the fitted curve; partial curves, single points and poor fits give uncertain potencies.

For `COCCN1CCN(C(=O)c2ccc3nc(Cc4ccccc4F)oc3c2)CC1`, the cell number change worked out at 7.78%. Also, under setting [1], the concentration at half-maximal activity (AC50) is 13 µM [rising, partial curve, poor fit].

For `Cc1ccc(S(=O)(=O)N(CC(=O)Nc2ccc(Cl)c([N+](=O)[O-])c2)C2CCCCC2)cc1`, the cell number change is -10.4%. Moreover, the AC50 under setting [1] was 29.1 µM [falling, single point].

Take `O=C(Cn1cc(/C=N/NC(=O)c2ccccc2Br)c2ccccc21)Nc1ccc(F)cc1`: the cell number change was -36.5%. Also, under setting [2], the concentration at half-maximal activity (AC50) is 0.103 µM [falling, full curve, poor fit]. The half-maximal activity concentration (AC50) under setting [1] is 29.1 µM [falling, single point].

For `COCCn1cnc2c1c(=O)n(CC(=O)OCC(=O)NCCCc1ccccc1)c(=O)n2Cc1ccccc1`, under setting [2], the AC50 is 0.58 µM [rising, partial curve, poor fit].

For `COc1ccccc1C(=O)NCCC(=O)NCCc1ccccc1`, the cell number change is -15.7%. Further, the AC50 under setting [1] was 0.58 µM [rising, single point].

With `Cc1nonc1C(=O)N1CCCC(N2CCN(c3ccc(F)cc3)CC2)C1` (stereo unspecified), the cell number change came to 13%. Moreover, under setting [1], the half-maximal activity concentration (AC50) is 0.731 µM [rising, full curve].

Take `Fc1ccc2c(c1)c1n[nH]c(=S)nc1n2CCc1ccccc1`: the cell number change is -13.9%. Under setting [1], the AC50 is 0.116 µM [falling, full curve, poor fit].

For the compound `Cc1ccc(-c2nc(CS(=O)(=O)CC(=O)NCc3cccc(F)c3)c(C)o2)cc1`, the cell number change was -13.3%.

On to `CC(CCc1ccccc1)NC(=O)c1ccccc1` (stereo unspecified), for which the cell number change stood at 37.7%. Besides, the AC50 under setting [2] is 18.4 µM [rising, single point]. For the same compound, the half-maximal activity concentration (AC50) under setting [1] is 25.9 µM [rising, partial curve, poor fit].

Turning to `CC(=O)Nc1nc2nc(-c3ccccc3)cc(-c3ccccc3)n2n1`, the cell number change turned out to be 2.97%. The AC50 under setting [2] is 0.00461 µM [falling, full curve, poor fit]. Moreover, under setting [1], the AC50 was 2.06 µM [falling, partial curve, poor fit].

For `COc1ccccc1N1CSC2=C(C#N)C(c3ccc(SC)cc3)CC(=O)N2C1` (stereo unspecified), the cell number change was determined as 48.4%. In addition, under setting [2], the concentration at half-maximal activity (AC50) is 4.11 µM [rising, partial curve, poor fit]. For the same compound, the AC50 under setting [1] is 1.3 µM [rising, partial curve, poor fit].

For the compound `O=C(COC(=O)c1ccc2c(c1[N+](=O)[O-])C(=O)c1ccccc1C2=O)NC1CC1`, the half-maximal activity concentration (AC50) under setting [1] was 23.1 µM [falling, partial curve].

As to `Cn1nnnc1SCc1nnc(-c2ccccc2Br)o1`, the cell number change worked out at 12.4%.

In the case of `CCCc1cc(NC(=O)CCl)n(-c2ccccc2)n1`, the cell number change was -35.4%. The AC50 under setting [2] was 16.4 µM [falling, single point]. The concentration at half-maximal activity (AC50) under setting [1] was 29.1 µM [falling, single point].

Take `COc1ccccc1N(C)S(=O)(=O)c1ccc(C(=O)N(CC(N)=O)C(C)C)cc1`: the cell number change was determined as 5.57%. Besides, under setting [1], the concentration at half-maximal activity (AC50) was 0.146 µM [rising, full curve, poor fit].

As for `O=C(CN1CCC(NC(=O)Nc2ccc(F)cc2)CC1)Nc1ccccc1[N+](=O)[O-]`, the cell number change was -15.3%. Also, the AC50 under setting [1] was 6.51 µM [falling, single point].

In the case of `CCCCn1c(=S)[nH]c2cc(S(=O)(=O)N3CCCCC3)ccc21`, the cell number change was found to be 37.3%. Also, under setting [2], the AC50 was 2.31 µM [rising, full curve]. Also, the half-maximal activity concentration (AC50) under setting [1] was 3.26 µM [rising, partial curve].

With `COc1ccc(-c2cc(CS(=O)(=O)c3ccccc3)on2)cc1`, the cell number change turned out to be 12%.

In the case of `COc1cccc(N2C(=O)CC(N3CCN(c4ccc([N+](=O)[O-])cc4)CC3)C2=O)c1` (stereo unspecified), the cell number change amounted to 21.7%. Further, under setting [1], the half-maximal activity concentration (AC50) is 6.51 µM [rising, partial curve, poor fit].

As to `Cc1ccc(/C=N/NC(=O)c2cccc(NC(=O)c3ccccc3C)c2)o1`, the cell number change is -5%. Besides, the half-maximal activity concentration (AC50) under setting [1] is 1.16 µM [rising, single point].

Take `COc1ccc(C(=O)CSc2nn3c(=O)c(C(C)(C)C)nnc3s2)cc1`: the cell number change is 6.64%. Besides, under setting [1], the AC50 was 0.0411 µM [falling, full curve, poor fit].

On to `COC(=O)COc1cccc2c(=O)n(CC(=O)Nc3ccc4c(c3)OCCO4)ccc12`, for which the cell number change was -25.4%. In addition, the AC50 under setting [1] is 32.6 µM [falling, single point].

Consider `CN(C)S(=O)(=O)c1cccc(NC(=S)NC23CC4CC(CC(C4)C2)C3)c1`, for which the cell number change is -7.69%. In addition, the AC50 under setting [1] is 0.116 µM [falling, single point].

For `O=C(NNC(=O)C1CCN(c2ncccn2)CC1)c1ccc(F)cc1`, the cell number change came to 8.11%. In addition, the AC50 under setting [1] was 29.1 µM [rising, single point].

As to `Cn1c(=O)c(Cc2ccccc2)c(O)c2ccccc21`, the cell number change was -20.2%. In addition, the half-maximal activity concentration (AC50) under setting [2] was 0.00517 µM [falling, full curve, poor fit]. Under setting [1], the concentration at half-maximal activity (AC50) is 18.4 µM [falling, partial curve].

Take `COC(=O)Cc1c(O)ccn(Cc2ccc(OC)c(OC)c2)c1=O`: the cell number change worked out at 20%. For the same compound, the half-maximal activity concentration (AC50) under setting [2] is 0.461 µM [falling, single point].

For the compound `O=C(CCN1C(=O)/C(=C/c2ccccc2Cl)SC1=S)NC1CCS(=O)(=O)C1` (stereo unspecified), the cell number change was 9.54%. Besides, the half-maximal activity concentration (AC50) under setting [1] is 6.51 µM [falling, single point].

Regarding `CCOC(=O)c1[nH]ncc1[C@@H]1C[C@H]2CN(Cc3cccc(Cl)c3)C(=O)[C@]23CCCN13`, the cell number change is -1.03%. Also, under setting [1], the AC50 is 0.116 µM [rising, full curve, poor fit].

Turning to `Cc1nc(NC(=O)C23CC4CC(CC(C4)C2)C3)sc1Cc1ccc2c(c1)OCO2`, the cell number change is -8.75%. Under setting [1], the AC50 was 8.2 µM [falling, partial curve, poor fit].

In the case of `COCCNC(=O)CSc1ccccc1C(=O)NC1CCCc2ccccc21` (stereo unspecified), the cell number change was -3.23%.

As for `CCN(C(=O)CCS(=O)(=O)c1cccc2nsnc12)c1cccc(C)c1`, the cell number change came to 23.3%. Moreover, the AC50 under setting [1] is 2.91 µM [rising, partial curve, poor fit].

On to `COc1ccc(NC(=O)c2ccco2)cc1NC(=O)c1cccnc1`, for which the cell number change worked out at 146%. Further, the half-maximal activity concentration (AC50) under setting [2] was 18.4 µM [rising, partial curve]. Moreover, the AC50 under setting [1] was 20.6 µM [rising, partial curve].

`Cc1ccc(-c2nnn(CC(=O)N(Cc3cccs3)C(C(=O)NC(C)(C)C)c3ccc(C)o3)n2)o1` (stereo unspecified): the cell number change was -97.3%. Further, under setting [2], the concentration at half-maximal activity (AC50) was 29.1 µM [falling, single point]. In addition, the AC50 under setting [1] is 20.6 µM [falling, single point].

For `CS(=O)(=O)c1ccc2nc(NC(=O)C3CC(=O)N(c4ccc(F)cc4)C3)sc2c1` (stereo unspecified), the cell number change was determined as 41.7%. Under setting [2], the half-maximal activity concentration (AC50) is 20.6 µM [rising, single point].
